# According to US6492381B1, “Tricyclic carbamate compounds useful for inhibition of G-protein function and for treatment of proliferative diseases” (Schering Corp., priority 1993, dated 2002):
# By UniProt entry, the sequences of proteins in these tests, tags left out.
# UniProt Q02293, whole entry: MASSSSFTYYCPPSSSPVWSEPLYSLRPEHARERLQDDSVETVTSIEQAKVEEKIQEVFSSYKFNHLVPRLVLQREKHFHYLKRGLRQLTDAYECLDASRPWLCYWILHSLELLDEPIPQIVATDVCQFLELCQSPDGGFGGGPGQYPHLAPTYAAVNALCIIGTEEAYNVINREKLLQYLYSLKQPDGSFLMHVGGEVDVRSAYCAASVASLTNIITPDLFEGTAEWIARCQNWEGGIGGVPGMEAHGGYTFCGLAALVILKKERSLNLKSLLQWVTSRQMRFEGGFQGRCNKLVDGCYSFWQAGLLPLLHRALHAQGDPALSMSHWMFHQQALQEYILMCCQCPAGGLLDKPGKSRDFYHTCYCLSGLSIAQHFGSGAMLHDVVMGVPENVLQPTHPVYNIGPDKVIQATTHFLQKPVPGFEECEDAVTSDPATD
# Molecular target: T1, farnesyl protein transferase (FPT) (Rattus norvegicus, UniProt Q02293+Q04631)
# T1 construct: were partially purified from rat brain by ammonium sulfate fractionation followed by Q-Sepharose; from tissue; host or cells: rat brain
# Test: In vitro enzyme assay: inhibition of farnesyl protein transferase
# Assay type: biochemical
# Protocol: 1. In vitro enzyme assays: Inhibition of farnesyl protein transferase and geranylgeranyl protein transferase.
# Human farnesyl protein transferase was also expressed in E. coli, using cDNA clones encoding both the α and β subunits. […] Two forms of val^12-Ha-Ras protein were prepared as substrates for these enzymes, differing in their carboxy terminal sequence. One form terminated in cysteine-valine-leucine-serine (Ras-CVLS) the other in cystein-valine-leucine-leucine (Ras-CVLL). Ras-CVLS is a substrate for the farnesyl protein transferase while Ras-CVLL is a substrate for geranylgeranyl protein transferase I. The cDNAs encoding these proteins were constructed so that the proteins contain an amino-terminal extension of 6 histidine residues. Both proteins were expressed in Escherichia coli and purified using metal chelate affinity chromatography. The radiolabelled isoprenyl pyrophosphate substrates, [^3H]farnesyl pyrophosphate and [^3H]geranylgeranyl pyrophosphate, were purchased from DuPont/New England Nuclear.
# The reaction was allowed to proceed for 30 minutes at room temperature and then stopped with 0.5 ml of 4% sodium dodecyl sulfate (SDS) followed by 0.5 ml of cold 30% trichloracetic acid (TCA). […] Percent inhibition was calculated relative to the DMSO vehicle control.
smiles,measurement,value
"O=C(Sc1ccccc1)N1CCC(=C2c3ccc(Cl)cc3CCc3cccnc32)CC1 [Compound 595.00, 4-(8-chloro-5,6-dihydro-11H-benzo[5,6]cyclohepta[1,2-b]-pyridin-11ylidene)-1-piperinecarbothioic Acid, S-phenyl Ester]",IC50,240 nM
